The results in this text go back to US20210393785A1, “Nucleic acid nanocarrier drug and preparation method thereof” (BAI YAO ZHI DA (BEIJING) NANOBIO TECHNOLOGY CO., LTD., priority 2018, published 2021).

In general, pIC50 refers to the IC50 on a negative log10 scale, so that one unit is a factor of ten.

Structures are written as SMILES. pIC50: −log10 of the molar value.

The subject of the experiment is SKOV3 cells. Description: Cytotoxicity in SKOV3 cells (CellTiter-Glo). In kind it is cell-based. The conditions noted are these: treatment time 72 h. (ATP-based viability assays read luminescence as a measure of living cells.)

`N.N.[Cl][Pt][Cl]` [Cisplatin]: the pIC50 was 4.34.
